Measurements: patent US10905120B2, “ABA receptor agonists that modulate transpiration” (The Regents of the University of California, priority 2016, dated 2021)
Some results were stated once for a whole list of compounds, not compound by compound.

The molecules below were run on pMAPKKK18::Luc+ line (assay: pMAPKKK18::Luc+ reporter assay in seedlings). Details: 8-d-old seedlings, 25 μM, 6 h.
Assay type: in vivo, Arabidopsis
For `CCc1cc(NS(=O)(=O)Cc2ccc(C)cc2)cc(C)c1C#N` [Ligand Q30, N-(4-Cyano-3-ethyl-5-methylphenyl)-1-(4-methylphenyl)methanesulfonamide], the luciferase response was “induced a significant luciferase response”.
With `CCc1cc(NS(=O)(=O)Cc2ccc(C)cc2)ccc1C#N` [Ligand Q29, N-(4-Cyano-3-ethylphenyl)-1-(4-methylphenyl)methanesulfonamide] the luciferase response was “induced a significant luciferase response”.
In the case of `CCCc1cc(NS(=O)(=O)Cc2ccc(C)cc2)ccc1C#N` [Ligand Q31, N-(4-Cyano-3-propylphenyl)-1-(4-methylphenyl)methanesulfonamide], the luciferase response is reported as “induced a significant luciferase response”.
For `CCCc1cc(NS(=O)(=O)Cc2ccc(C)cc2)cc(C)c1C#N` [Ligand Q32, N-(4-Cyano-3-methyl-5-propylphenyl)-1-(4-methylphenyl)methanesulfonamide], the luciferase response was “induced a significant luciferase response”.
With `CCOc1cc(NS(=O)(=O)Cc2ccc(C)cc2)ccc1C#N` [Ligand Q26, N-(4-Cyano-3-ethoxyphenyl)-1-(4-methylphenyl)methanesulfonamide] the luciferase response was “induced a significant luciferase response”.
With `Cc1ccc(CS(=O)(=O)Nc2ccc(C#N)c(C3CC3)c2)cc1` [Ligand Q27, N-(4-Cyano-3-cyclopropylphenyl)-1-(4-methylphenyl)methanesulfonamide] the luciferase response was “induced a significant luciferase response”.
